Data reported in the supplement of paper PMC7125110.
± gives the standard error. The uncertainty is large for many entries.

B1: glmS ribozyme (parent)
chain: AUAAAAGCGCCAGAACUACAGAAAUGUAGUUGACGAGGAGGAGGUUUAUCGAAUUUUCGGCGGAUGCCUCCAAA

Variants of: B1
Experiment: KM; higher = weaker cofactor use; RNA array
Settings: with glucosamine-6-phosphate
How it was run: (§1)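 A hybridised Cy3 probe tracked barcoded ribozyme variants, transcribed in situ by E. coli RNA polymerase on sequenced MiSeq chips, at 37 °C. The variants received 40 μM to 10 mM glucosamine-6-phosphate in HEPES/KCl/Mg(OAc)2 buffer. kobs came from decay fits and kcat and KM from weighted Michaelis–Menten fits.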

Row | Variant | KM [µM]
1 | AUAAAAGCGCCAGACCUACAGAAAUGUAGUUGACGAGGAGGAGGUCUAUCGAAUUUUCGGCGGAUGCCUCCAAA [A15C U46C] | 1330 ± 520
2 | AUAAAAGCGCCAGACCUACAGAAAUGUAGUUGACGAGGAGGAGGUUUAUCGAAUUCUCGGCGGAUGCCUCCAAA [A15C U56C] | 2470 ± 690
3 | AUAAAAGCGCCAGAGCUACAGAAAUGUAGUUGACGAGGCGGAGGUUUAUCGAAUUUUCGGCGGAUGCCUCCAAA [A15G A39C] | 4930 ± 2900
4 | AUAAAAGCGCCAGAGCUACAGAAAUGUAGUUGACGAGGAGGAGGUUUAUCGAAUUUUCGGCGGGUGCCUCCAAA [A15G A64G] | 477 ± 320
5 | AUAAAAGCGCCAGAGCUACAGAAAUGUAGUUGACGAGGAGGAGGUUUAUCGAAUUUUCGGCGGUUGCCUCCAAA [A15G A64U] | 3870 ± 820
6 | AUAAAAGCGCCAGAGCUACAGAAAUGUAGUUGACGAGGAGGAGGUUUAUCGAAUUUUCGGGGGAUGCCUCCAAA [A15G C61G] | 59.5 ± 37
7 | AUAAAAGCGCCAGAGCUACAGAAAUGUAGUUGACGAGGAGGAGGUUUAUCGAAUUUUCGUCGGAUGCCUCCAAA [A15G G60U] | 171 ± 100
8 | AUAAAAGCGCCAGAGCUACAGAAAUGUAGUUGACGAGGAGGAGGUUUAUCGAAUUUUCGGCGGAUACCUCCAAA [A15G G66A] | 502 ± 320
9 | AUAAAAGCGCCAGAGCUACAGAAAUGUAGUUGACGAGGAGGAGGUCUAUCGAAUUUUCGGCGGAUGCCUCCAAA [A15G U46C] | 1440 ± 680
10 | AUAAAAGCGCCAGAGCUACAGAAAUGUAGUUGACGAGGAGGAGGUUGAUCGAAUUUUCGGCGGAUGCCUCCAAA [A15G U47G] | 617 ± 360
11 | AUAAAAGCGCCAGAGCUACAGAAAUGUAGUUGACGAGGAGGAGGUUUAUCGAAUUCUCGGCGGAUGCCUCCAAA [A15G U56C] | 3070 ± 1600
12 | AUAAAAGCGCCAGAUCUACAGAAAUGUAGUUGUCGAGGAGGAGGUUUAUCGAAUUUUCGGCGGAUGCCUCCAAA [A15U A33U] | 751 ± 530
13 | AUAAAAGCGCCAGAUCUACAGAAAUGUAGUUGACGAGGAGGAGGUUUCUCGAAUUUUCGGCGGAUGCCUCCAAA [A15U A48C] | 1190 ± 910
14 | AUAAAAGCGCCAGAUCUACAGAAAUGUAGUUGACGAGGAGGAGGUUUAUCGACUUUUCGGCGGAUGCCUCCAAA [A15U A53C] | 798 ± 600
15 | AUAAAAGCGCCAGAUCUACAGAAAUGUAGUUGACGAGGAGGAGGUUUAUCGAAUUUUCGGAGGAUGCCUCCAAA [A15U C61A] | 829 ± 70
16 | AUAAAAGCGCCAGAUCUACAGAAAUGUAGUUGACGAGGAGGAGGUUUAUCGAAUUUUCGGUGGAUGCCUCCAAA [A15U C61U] | 14.9 ± 12
17 | AUAAAAGCGCCAGAUCUACAGAAAUGUAUUUGACGAGGAGGAGGUUUAUCGAAUUUUCGGCGGAUGCCUCCAAA [A15U G29U] | 1440 ± 930
18 | AUAAAAGCGCCAGAUCUACAGAAAUGUAGUUCACGAGGAGGAGGUUUAUCGAAUUUUCGGCGGAUGCCUCCAAA [A15U G32C] | 2550 ± 370
19 | AUAAAAGCGCCAGAUCUACAGAAAUGUAGUUGACGAGAAGGAGGUUUAUCGAAUUUUCGGCGGAUGAUUCCAAA [A15U G38A C67A C68U] | 928 ± 690
20 | AUAAAAGCGCCAGAUCUACAGAAAUGUAGUUGACGAGGAGGAGGUUUAUCGAAUUUUCGCCGGAUGCCUCCAAA [A15U G60C] | 59.9 ± 33
21 | AUAAAAGCGCCAGAUCUACAGAAAUGUAGUGGACGAGGAGGAGGUUUAUCGAAUUUUCGGCGGAUGCCUCUAAA [A15U U31G C71U] | 844 ± 430
22 | AUAAAAGCGCCAGAUCUACAGAAAUGUAGUUGACGAGGAGGAGGUCUAUCGAAUUUUCGGCGGAUGCCUCCAAA [A15U U46C] | 1290 ± 210
23 | AUAAAAGCGCCAGAUCUACAGAAAUGUAGUUGACGAGGAGGAGGUUUAUCGAAUUUUCGGCGGAUGCCACCAAA [A15U U69A] | 253 ± 250
24 | AUAAAAGCGCCAGAAAUACAGAAAUGUAGUUUACGAGGAGGAGGUUUAUCGAAUUUUCGGCGGAUGCCUCCAAA [C16A G32U] | 6390 ± 1500
25 | AUAAAAGCGCCAGAAAUACAGAAAUGUAGUUGACGAGUAGGAGGUUUAUCGAAUUUUCGGCGGAUGCCUCCAAA [C16A G38U] | 26.3 ± 25
26 | AUAAAAGCGCCAGAAAUACAGAAAUGUAGUUGACGAGGAGGAGGUUGAUCGAAUUUUCGGCGGAUGCCUCCAAA [C16A U47G] | 631 ± 230
27 | AUAAAAGCGCCAGAAAUACAGAAAUGUAGUUGACGAGGAGGAGGUUUAUCGAAUGUUCGGCGGAUGCCUCCAAA [C16A U55G] | 4520 ± 2400
28 | AUAAAAGCGCCAGAAAUACAGAAAUGUAGUUGACGAGGAGGAGGUUUAUCGAAUUUUCGGCGGACGCCUCCAAA [C16A U65C] | 654 ± 8.5
29 | AUAAAAGCGCCAGAAGUACAGAAAUGUAGUUGACGAGGAGGAGGUUUAUCGAAUUUUCGGCGGAUGCCUCCAAA [C16G] | 2880 ± 1100

A second format for part of the listing above:
Row	Variant	KM [µM]
6	AUAAAAGCGCCAGAGCUACAGAAAUGUAGUUGACGAGGAGGAGGUUUAUCGAAUUUUCGGGGGAUGCCUCCAAA [A15G C61G]	59.5 ± 37
7	AUAAAAGCGCCAGAGCUACAGAAAUGUAGUUGACGAGGAGGAGGUUUAUCGAAUUUUCGUCGGAUGCCUCCAAA [A15G G60U]	171 ± 100
12	AUAAAAGCGCCAGAUCUACAGAAAUGUAGUUGUCGAGGAGGAGGUUUAUCGAAUUUUCGGCGGAUGCCUCCAAA [A15U A33U]	751 ± 530

Variants of: B1
Experiment: self-cleavage kobs at 160 uM GlcN6P; higher = faster cleavage; RNA array
Settings: with glucosamine-6-phosphate
How it was run: as §1

Row | Variant | self-cleavage kobs at 160 uM GlcN6P [s⁻¹]
30 | AUAAAAGCGCCAGACCUACAGAAAUGUAGUUGACGAGGAGGAGGUCUAUCGAAUUUUCGGCGGAUGCCUCCAAA [A15C U46C] | 2.26e-05 ± 1.3e-05
31 | AUAAAAGCGCCAGAGCUACAGAAAUGUAGUUGACGAGGAGGAGGUUUAUCGAAUUUUCGGCGGUUGCCUCCAAA [A15G A64U] | 2.28e-05 ± 1.7e-05
32 | AUAAAAGCGCCAGAUCUACAGAAAUGUAGUUGACGAGGAGGAGGUUUAUCGAAUUUUCGGCGGAUGCCACCAAA [A15U U69A] | 2.86e-05 ± 1.5e-05

Variants of: B1
Experiment: self-cleavage kobs at 40 uM GlcN6P; higher = faster cleavage; RNA array
Settings: with glucosamine-6-phosphate
How it was run: as §1

Row | Variant | self-cleavage kobs at 40 uM GlcN6P [s⁻¹]
33 | AUAAAAGCGCCAGACCUACAGAAAUGUAGUUGACGAGGAGGAGGUUUAUCGAAUUCUCGGCGGAUGCCUCCAAA [A15C U56C] | 2.17e-05 ± 1.2e-05
34 | AUAAAAGCGCCAGAUCUACAGAAAUGUAGUUGACGAGGAGGAGGUCUAUCGAAUUUUCGGCGGAUGCCUCCAAA [A15U U46C] | 1.95e-05 ± 1.7e-05

Variants of: B1
Experiment: self-cleavage kobs at 2500 uM GlcN6P; higher = faster cleavage; RNA array
Settings: with glucosamine-6-phosphate
How it was run: as §1

Row | Variant | self-cleavage kobs at 2500 uM GlcN6P [s⁻¹]
35 | AUAAAAGCGCCAGAUCUACAGAAAUGUAGUUGACGAGGAGGAGGUUUCUCGAAUUUUCGGCGGAUGCCUCCAAA [A15U A48C] | 1.79e-05 ± 1.7e-05

Variants of: B1
Experiment: self-cleavage kobs at 10000 uM GlcN6P; higher = faster cleavage; RNA array
Settings: with glucosamine-6-phosphate
How it was run: as §1

Row | Variant | self-cleavage kobs at 10000 uM GlcN6P [s⁻¹]
36 | AUAAAAGCGCCAGAUCUACAGAAAUGUAGUUGACGAGGAGGAGGUUUCUCGAAUUUUCGGCGGAUGCCUCCAAA [A15U A48C] | 2.16e-05 ± 1.4e-05
37 | AUAAAAGCGCCAGAAAUACAGAAAUGUAGUUGACGAGGAGGAGGUUUAUCGAAUUUUCGGCGGACGCCUCCAAA [C16A U65C] | 2.27e-05 ± 1.6e-05
